The target of test [1] is T1, myc-tagged modified (membrane-anchored) HRG (UniProt P04196).
T1 sequence: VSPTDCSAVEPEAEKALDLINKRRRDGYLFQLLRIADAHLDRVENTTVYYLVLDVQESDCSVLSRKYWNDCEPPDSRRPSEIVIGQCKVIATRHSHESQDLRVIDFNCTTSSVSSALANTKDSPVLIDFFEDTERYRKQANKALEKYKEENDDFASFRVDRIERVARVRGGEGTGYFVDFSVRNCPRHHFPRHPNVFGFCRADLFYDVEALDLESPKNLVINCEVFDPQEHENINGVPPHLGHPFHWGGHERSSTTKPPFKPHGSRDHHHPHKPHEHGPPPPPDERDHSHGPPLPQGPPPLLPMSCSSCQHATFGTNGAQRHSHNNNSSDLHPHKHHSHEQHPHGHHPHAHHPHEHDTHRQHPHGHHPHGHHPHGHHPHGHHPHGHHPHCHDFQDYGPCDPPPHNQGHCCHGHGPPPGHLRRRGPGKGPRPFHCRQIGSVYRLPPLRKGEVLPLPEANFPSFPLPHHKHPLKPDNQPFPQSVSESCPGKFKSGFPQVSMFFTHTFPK
The test is described as follows: co-IP; HEK293T co-transfected with membrane-anchored myc-tagged HRG and HA-tagged S100 proteins; IP with anti-myc agarose, 3 h at 4 °C; blot with HA antibody.

The chains behind the UniProt entries cited, without tags or fusion partners.
UniProt P26447: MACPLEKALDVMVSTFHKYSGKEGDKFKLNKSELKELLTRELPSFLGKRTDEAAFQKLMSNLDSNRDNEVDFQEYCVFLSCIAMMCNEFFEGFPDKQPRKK

For test [2], the target named is T2, GST-S100A8/A9 (preincubated mixture of GST-S100A8 and GST-S100A9) (human) (UniProt P05109+P06702).
T2 sequence 1: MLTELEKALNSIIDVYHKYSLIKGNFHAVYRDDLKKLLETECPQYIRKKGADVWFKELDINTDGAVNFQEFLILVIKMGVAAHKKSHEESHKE
T2 sequence 2: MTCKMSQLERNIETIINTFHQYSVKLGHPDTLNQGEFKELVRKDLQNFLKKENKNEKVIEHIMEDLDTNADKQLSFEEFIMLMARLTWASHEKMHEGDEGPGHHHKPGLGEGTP
Kind of test: pull-down; 10 µg GST protein (single, or preincubated mixture of GST-S100A8 and GST-S100A9) incubated with 1 mL healthy human plasma, 30 min, room temperature; glutathione-conjugated Sepharose beads; eluted with glutathione; SDS-PAGE, CBB stain; bands identified by LC-MS/MS; only the target ….

Another test concerns the target T3, GST-S100A8 (human) (UniProt P05109).
T3 sequence: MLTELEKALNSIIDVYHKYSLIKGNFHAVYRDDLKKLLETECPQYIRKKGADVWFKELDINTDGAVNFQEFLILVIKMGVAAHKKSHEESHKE
Described as above.

A further test addresses T4, GST-S100A9 (human) (UniProt P06702).
T4 sequence: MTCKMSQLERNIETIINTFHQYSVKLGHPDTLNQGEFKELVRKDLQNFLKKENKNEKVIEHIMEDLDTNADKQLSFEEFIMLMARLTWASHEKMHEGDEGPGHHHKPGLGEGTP
Described as above.

Results are given in words; binding and its absence hold for the method and conditions named. Binding seen in cells or lysates may run through a third protein. Some results given as binding are weak or reduced against the parent protein; the word gives no strength. Where a sequence is shown, tags or fusion partners need not be part of it.

“HA-tagged membrane-anchored S100A4 (from UniProt P26447 1-101)”: the binding entry in test [1] is recorded as “binds”.

B1: HA-tagged membrane-anchored S100A5 (protein, UniProt P33763 1-92)
chain: METPLEKALTTMVTTFHKYSGREGSKLTLSRKELKELIKKELCLGEMKESSIDDLMKSLDKNSDQEIDFKEYSVFLTMLCMAYNDFFLEDNK
For the molecule B1, the binding entry in test [1] is “binds”.

B2: HA-tagged membrane-anchored S100A9 (protein, UniProt P06702 1-114)
chain: MTCKMSQLERNIETIINTFHQYSVKLGHPDTLNQGEFKELVRKDLQNFLKKENKNEKVIEHIMEDLDTNADKQLSFEEFIMLMARLTWASHEKMHEGDEGPGHHHKPGLGEGTP
On to B2, for which the binding result in test [1] is “binds”.

B3: histidine-rich glycoprotein (HRG), human plasma (protein, UniProt P04196 19-525)
chain: VSPTDCSAVEPEAEKALDLINKRRRDGYLFQLLRIADAHLDRVENTTVYYLVLDVQESDCSVLSRKYWNDCEPPDSRRPSEIVIGQCKVIATRHSHESQDLRVIDFNCTTSSVSSALANTKDSPVLIDFFEDTERYRKQANKALEKYKEENDDFASFRVDRIERVARVRGGEGTGYFVDFSVRNCPRHHFPRHPNVFGFCRADLFYDVEALDLESPKNLVINCEVFDPQEHENINGVPPHLGHPFHWGGHERSSTTKPPFKPHGSRDHHHPHKPHEHGPPPPPDERDHSHGPPLPQGPPPLLPMSCSSCQHATFGTNGAQRHSHNNNSSDLHPHKHHSHEQHPHGHHPHAHHPHEHDTHRQHPHGHHPHGHHPHGHHPHGHHPHGHHPHCHDFQDYGPCDPPPHNQGHCCHGHGPPPGHLRRRGPGKGPRPFHCRQIGSVYRLPPLRKGEVLPLPEANFPSFPLPHHKHPLKPDNQPFPQSVSESCPGKFKSGFPQVSMFFTHTFPK
modifications: glycosylated (a total of about 20-KDa glycosyl chains)
B3: the binding result is “binds” in test [2], “no binding (tested: 10 µg GST protein in 1 mL plasma)” with GST-S100A8 (human) and “binds” in the test with GST-S100A9 (human).

B4: HA-tagged membrane-anchored S100A3 (protein, UniProt P33764 1-101)
chain: MARPLEQAVAAIVCTFQEYAGRCGDKYKLCQAELKELLQKELATWTPTEFRECDYNKFMSVLDTNKDCEVDFVEYVRSLACLCLYCHEYFKDCPSEPPCSQ
As to B4, the binding result in test [1] is given as “binds”.
